Screening data

From PubChem BioAssay record AID504749 (NCATS, 2011).

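A panel of P. falciparum strains inside erythrocytes is exposed to compounds for three days, then a DNA-binding dye reports the amount of parasite DNA. Each compound was titrated across a series from about 0.000037 to 29 µM. The number is the fitted AC50, the concentration giving a half-maximal change in signal; a lower value means higher potency, whether the curve shows a decrease or an increase. Calls follow the curve class and fit quality: every row here is inconclusive, covering signal-raising curves and weak, poorly fitted, partial or highest-dose-only inhibition curves.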

Values are in µM. Every entry below has the call inconclusive. Only part of the assay is shown, chiefly results filed as inconclusive. Potencies fitted to partial, single-point or poorly fitting curves are rough. Some entries filed as inconclusive have a full curve. The first word of each remark tells which way the curve ran; it can be opposite to the aim of the assay.

| structure | setting | Potency (µM) | curve |
|---|---|---|---|
| `c1ccc(CNCCNCc2ccccc2)cc1` | CP194 | 9.528 | inhibitor, partial curve |
| `c1ccc(CNCCNCc2ccccc2)cc1` | AA1029 | 10 | inhibitor, partial curve, poor fit |
| `c1ccc(CNCCNCc2ccccc2)cc1` | CP286 | 17.78 | inhibitor, single point |
| `c1ccc(CNCCNCc2ccccc2)cc1` | CP305 | 13.46 | inhibitor, partial curve, poor fit |
| `c1ccc(CNCCNCc2ccccc2)cc1` | CP269 | 13.46 | inhibitor, partial curve, poor fit |
| `c1ccc(CNCCNCc2ccccc2)cc1` | CP266 | 16.94 | inhibitor, single point |
| `CC1(C)SC2[C@@H](N=CN3CCCCCC3)C(=O)N2[C@H]1C(=O)O` (stereo partly specified) | W2 | 7.569 | inhibitor, partial curve, poor fit |
| `CC1(C)SC2[C@@H](N=CN3CCCCCC3)C(=O)N2[C@H]1C(=O)O` (stereo partly specified) | DIV14 | 0.0013 | activator |
| `CC1(C)SC2[C@@H](N=CN3CCCCCC3)C(=O)N2[C@H]1C(=O)O` (stereo partly specified) | ICS | 19.95 | inhibitor, single point |
| `CC1(C)SC2[C@@H](N=CN3CCCCCC3)C(=O)N2[C@H]1C(=O)O` (stereo partly specified) | CP297 | 6.012 | inhibitor, partial curve |
| `CC1(C)SC2[C@@H](N=CN3CCCCCC3)C(=O)N2[C@H]1C(=O)O` (stereo partly specified) | TAB113 | 17.78 | inhibitor, single point |
| `CC1(C)SC2[C@@H](N=CN3CCCCCC3)C(=O)N2[C@H]1C(=O)O` (stereo partly specified) | TAB165 | 17.78 | inhibitor, single point |
| `CC1(C)SC2[C@@H](N=CN3CCCCCC3)C(=O)N2[C@H]1C(=O)O` (stereo partly specified) | PAD | 14.13 | inhibitor, single point |
| `CC1(C)SC2[C@@H](N=CN3CCCCCC3)C(=O)N2[C@H]1C(=O)O` (stereo partly specified) | P94_40 | 17.78 | inhibitor, single point |
| `CC1(C)SC2[C@@H](N=CN3CCCCCC3)C(=O)N2[C@H]1C(=O)O` (stereo partly specified) | CP256 | 17.78 | inhibitor, single point |
| `CC1(C)SC2[C@@H](N=CN3CCCCCC3)C(=O)N2[C@H]1C(=O)O` (stereo partly specified) | CP215 | 15.1 | inhibitor, single point |
| `CC1(C)SC2[C@@H](N=CN3CCCCCC3)C(=O)N2[C@H]1C(=O)O` (stereo partly specified) | 7G8 | 10 | inhibitor, single point |
| `CC(C)Nc1ccc(Nc2ccccc2)cc1` | HB3 | 12.59 | inhibitor, single point |
| `CC(C)Nc1ccc(Nc2ccccc2)cc1` | PC15 | 14.13 | inhibitor, single point |
| `CC(C)Nc1ccc(Nc2ccccc2)cc1` | JCK | 10 | inhibitor, single point |
| `CC(C)Nc1ccc(Nc2ccccc2)cc1` | CP335 | 13.46 | inhibitor, single point |
| `CCCCCCCC(=O)O` | CP291 | 13.46 | inhibitor, single point |
| `C[C@]12CC[C@@H]3c4ccc(O)cc4C[C@@H](CCCCCCCCCS(=O)CCCC(F)(F)C(F)(F)F)C3[C@@H]1CC[C@@H]2O` (stereo partly specified) | CP269 | 6.746 | inhibitor, partial curve |
| `C[C@]12CC[C@@H]3c4ccc(O)cc4C[C@@H](CCCCCCCCCS(=O)CCCC(F)(F)C(F)(F)F)C3[C@@H]1CC[C@@H]2O` (stereo partly specified) | CP192 | 10.69 | inhibitor, partial curve, poor fit |
| `C[C@]12CC[C@@H]3c4ccc(O)cc4C[C@@H](CCCCCCCCCS(=O)CCCC(F)(F)C(F)(F)F)C3[C@@H]1CC[C@@H]2O` (stereo partly specified) | CP194 | 4.256 | inhibitor, partial curve |
| `C[C@]12CC[C@@H]3c4ccc(O)cc4C[C@@H](CCCCCCCCCS(=O)CCCC(F)(F)C(F)(F)F)C3[C@@H]1CC[C@@H]2O` (stereo partly specified) | CP247 | 11.22 | inhibitor, single point |
| `C[C@]12CC[C@@H]3c4ccc(O)cc4C[C@@H](CCCCCCCCCS(=O)CCCC(F)(F)C(F)(F)F)C3[C@@H]1CC[C@@H]2O` (stereo partly specified) | CP215 | 6.012 | inhibitor, partial curve |
| `C[C@]12CC[C@@H]3c4ccc(O)cc4C[C@@H](CCCCCCCCCS(=O)CCCC(F)(F)C(F)(F)F)C3[C@@H]1CC[C@@H]2O` (stereo partly specified) | CP211 | 3.793 | inhibitor, partial curve |
| `C[C@]12CC[C@@H]3c4ccc(O)cc4C[C@@H](CCCCCCCCCS(=O)CCCC(F)(F)C(F)(F)F)C3[C@@H]1CC[C@@H]2O` (stereo partly specified) | CP268 | 12 | inhibitor, single point |
| `C[C@]12CC[C@@H]3c4ccc(O)cc4C[C@@H](CCCCCCCCCS(=O)CCCC(F)(F)C(F)(F)F)C3[C@@H]1CC[C@@H]2O` (stereo partly specified) | CP203 | 7.569 | inhibitor, partial curve |
| `CCCC(C)(COC(N)=O)COC(N)=O` | CP215 | 16.94 | inhibitor, single point |
| `CCCC(C)(COC(N)=O)COC(N)=O` | CP291 | 1.901 | activator, partial curve, poor fit |
| `CCCC(C)(COC(N)=O)COC(N)=O` | W2 | 1.694 | inhibitor, partial curve, poor fit |
| `CC[C@H](c1ccc(O)cc1)[C@@H](CC)c1ccc(O)cc1` | CP211 | 0.0005 | activator, full curve, poor fit |
| `COC(=O)Nc1nc2ccc(C(=O)c3cccs3)cc2[nH]1` | DIV14 | 5.358 | inhibitor, partial curve, poor fit |
| `COC(=O)Nc1nc2ccc(C(=O)c3cccs3)cc2[nH]1` | C2A | 7.943 | inhibitor, single point |
| `COC(=O)Nc1nc2ccc(C(=O)c3cccs3)cc2[nH]1` | DIV17 | 5.358 | inhibitor, partial curve, poor fit |
| `COC(=O)Nc1nc2ccc(C(=O)c3cccs3)cc2[nH]1` | CP260 | 17.78 | inhibitor, single point |
| `NC[C@H](O)c1ccc(O)c(O)c1` | DIV14 | 9.528 | inhibitor, partial curve, poor fit |
| `NC[C@H](O)c1ccc(O)c(O)c1` | CP192 | 19.01 | inhibitor, single point |
| `CC1OC(OC2C(O)CC(OC3C(O)CC(OC4CCC5(C)C(CCC6C5CCC5(C)C(C7=CC(=O)OC7)CCC65O)C4)OC3C)OC2C)CC(O)C1O` (stereo unspecified) | W2 | 1.694 | inhibitor, full curve |
| `CC1OC(OC2C(O)CC(OC3C(O)CC(OC4CCC5(C)C(CCC6C5CCC5(C)C(C7=CC(=O)OC7)CCC65O)C4)OC3C)OC2C)CC(O)C1O` (stereo unspecified) | Dd2 | 5.012 | inhibitor, partial curve |
| `CC1OC(OC2C(O)CC(OC3C(O)CC(OC4CCC5(C)C(CCC6C5CCC5(C)C(C7=CC(=O)OC7)CCC65O)C4)OC3C)OC2C)CC(O)C1O` (stereo unspecified) | PC26 | 0.12 | inhibitor, full curve, poor fit |
| `CC1OC(OC2C(O)CC(OC3C(O)CC(OC4CCC5(C)C(CCC6C5CCC5(C)C(C7=CC(=O)OC7)CCC65O)C4)OC3C)OC2C)CC(O)C1O` (stereo unspecified) | 3D7 | 8.912 | inhibitor, single point |
| `CC1OC(OC2C(O)CC(OC3C(O)CC(OC4CCC5(C)C(CCC6C5CCC5(C)C(C7=CC(=O)OC7)CCC65O)C4)OC3C)OC2C)CC(O)C1O` (stereo unspecified) | HB3 | 0.1995 | inhibitor, full curve |
| `CC1OC(OC2C(O)CC(OC3C(O)CC(OC4CCC5(C)C(CCC6C5CCC5(C)C(C7=CC(=O)OC7)CCC65O)C4)OC3C)OC2C)CC(O)C1O` (stereo unspecified) | ICS | 11.22 | inhibitor, partial curve |
| `CC1OC(OC2C(O)CC(OC3C(O)CC(OC4CCC5(C)C(CCC6C5CCC5(C)C(C7=CC(=O)OC7)CCC65O)C4)OC3C)OC2C)CC(O)C1O` (stereo unspecified) | CP335 | 10.69 | inhibitor, partial curve, poor fit |
| `CC1OC(OC2C(O)CC(OC3C(O)CC(OC4CCC5(C)C(CCC6C5CCC5(C)C(C7=CC(=O)OC7)CCC65O)C4)OC3C)OC2C)CC(O)C1O` (stereo unspecified) | CP194 | 0.0675 | inhibitor, partial curve, poor fit |
| `CC1OC(OC2C(O)CC(OC3C(O)CC(OC4CCC5(C)C(CCC6C5CCC5(C)C(C7=CC(=O)OC7)CCC65O)C4)OC3C)OC2C)CC(O)C1O` (stereo unspecified) | DIV17 | 19.01 | inhibitor, single point |
| `CC1OC(OC2C(O)CC(OC3C(O)CC(OC4CCC5(C)C(CCC6C5CCC5(C)C(C7=CC(=O)OC7)CCC65O)C4)OC3C)OC2C)CC(O)C1O` (stereo unspecified) | PC15 | 0.4467 | inhibitor, full curve |

Repeated from the top, 5 entries:

structure,setting,Potency (µM),curve
c1ccc(CNCCNCc2ccccc2)cc1,CP194,9.528,"inhibitor, partial curve"
c1ccc(CNCCNCc2ccccc2)cc1,AA1029,10,"inhibitor, partial curve, poor fit"
c1ccc(CNCCNCc2ccccc2)cc1,CP286,17.78,"inhibitor, single point"
c1ccc(CNCCNCc2ccccc2)cc1,CP305,13.46,"inhibitor, partial curve, poor fit"
c1ccc(CNCCNCc2ccccc2)cc1,CP269,13.46,"inhibitor, partial curve, poor fit"